Values quoted from earlier work as cited in patent publication US20100166737A1, “P38Alpha as a Therapeutic Target in Bladder Carcinoma” (INSTITUT CURIE, priority 2007, published 2010).
At least one structure is not confirmed: it was looked up by name or label, or the drawing left a doubt.

Assays:
[1] = tested on: NIH-3T3 cell line transfected by mutated FGFR3-S249C; conditions: AACR abstract April 2005; cited from earlier work
[2] = tested on: NIH-3T3 cell line transfected by mutated FGFR3-S249C; conditions: AACR abstract April 2005; cited from earlier work; remark: listed apart in the source

In the case of O=c1cc(N2CCOCC2)oc2c(-c3ccccc3)cccc12 [LY294002], the “abilities to form colonies in soft agar” value [1] is listed as “inhibits” and the “transformed phenotype of the cells” value [2] is listed as “inhibits”.
